Measurements as given in patent US10550079B2, “Artificial self-sufficient cytochrome P450s” (University of Florida Research Foundation, Incorporated, priority 2015, dated 2020).
For at least one compound, name, drawing or mass did not settle the structure.

What was measured:
TxtE = TxtE (Streptomyces scabiei, UniProt C9ZDC6); assay: Nitration of fluorinated tryptophan substrates by TxtE; format: biochemical, S. scabies 87.22; parameters: inferred from the pET28 vector and Ni-NTA purification) (C); made in house; host or cells: E. coli BL21 (DE3)-GOLD
Procedure: (§1) P450 reactions contained 0.5 mM substrate, 1 mM NADP^+, 1 mM glucose, ˜10 units/mL self-prepared glucose dehydrogenase crude extract, 1 mM NOC-5 in 100 μL of Tris-HCl buffer (100 mM, pH 8.0). As the positive control, TxtE reaction was also re-constructed in the above mixture further supplemented with 0.43 μM spinach Fer and 0.33 μM Frd. The reactions were initiated by adding 1.5 μM P450s, and incubated at 20° C., 300 rpm on a thermostat (Eppendorf) for 2 hours. Methanol (200 μl) was then added to stop the reactions. After centrifugation, 10 μl solutions were analyzed by HPLC. […] The flow rate was set as 1.5 ml/min, and the products were detected at 211 nm with a PDA detector. […]
(§2) P450 reactions contained 0.5 mM substrate, 1 mM NADP^+, 1 mM glucose, ˜10 units/mL self-prepared glucose dehydrogenase crude extract, 1 mM NOC-5 [3-(aminopropyl)-1-hydroxy-3-isopropyl-2-oxo-1-triazene] in 100 μL of Tris-HCl buffer (100 mM, pH 8.0). […] After centrifugation, 10 μl solutions were analyzed by HPLC. […] The 4-NO2-l-tryptophan was synthesized in a large-scale enzymatic reaction to establish a standard curve for product quantification. […] NADPH consumption in enzyme reactions was measured at 340 nm (ε=6.22 mM^−1·cm^−1) with a Shimadzu UV2700 dual beam UV-Vis spectrophotometer. […] The quantity of nitrated product was determined by HPLC analysis as described above. […]

TxtE-BM3R = molecular target: T1, TxtE-BM3R (UniProt C9ZDC6+P14779); assay: Nitration of fluorinated tryptophan substrates by TxtE-BM3R; format: biochemical, S. scabies 87.22 / B. megaterium ATCC 14581
T1 construct: P450BM3 (CYP102A1) reductase domain BM3R with its Domcut-predicted native linker, from B. megaterium ATCC 14581 (GenBank J04832.1); made in house; host or cells: E. coli BL21 (DE3)-GOLD
Procedure: as §1, §2

N[C@@H](Cc1c[nH]c2ccc(F)cc12)C(=O)O [5-F-L-tryptophan, 5-F-l-tryptophan]
preference over L-tryptophan in the nitration reaction (ratio) (TxtE): 1.2:1
preference over L-tryptophan in the nitration reaction (ratio) (TxtE-BM3R): 1.2:1
